At least one structure is not confirmed: it was looked up by name or label, or the drawing left a doubt.
Tests used:
[1] = tested on: choline-deficient diet (CDD) rat model; assay: Choline-deficient diet (CDD) rat model of NASH-like liver change; assay type: in vivo, Male Wistar rats; details: CDD mixed with 0.25% UDCA for 4 weeks
Description: Male Wistar rats (7 weeks of age, 5 rats per group) received CDD (Dyets Co.) for 4 weeks.
On the other hand, in the group of 5 rats received CDD mixed with 4% L-alanine for 4 weeks, one rat is normalized in liver weight (10.6 g).

[2] = tested on: HFD-induced fatty liver rat model; assay: Hepatic triglyceride contents in high-fat diet (HFD)-induced fatty liver rat model; assay type: in vivo, Male GK rats; details: HFD mixed with 0.01% pioglitazone for 6 weeks, 6 rats
Method: It has been supposed that the increase of the amount of fat intake in the last few decades is one of the causes of the recent increase of the number of patients with NASH. Therefore, the effect of L-alanine on the hepatic triglyceride contents in the high-fat diet (hereinafter HFD)-induced fatty liver rat model.
Male GK rats (9 weeks of age, 6 rats per group) received HFD (containing 30% beef tallow) for 6 weeks. Triglyceride contents in the liver tissue was increased to 29.1 to 49.3 mg per gram of liver tissue, compared with those (14.1 to 24.2 mg) in the group fed with standard diet (containing 5% soy-been oil; hereinafter SD).
Pioglitazone is a drug, which acts as an insulin-sensitizer for the patients with diabetes. Recent clinical pilot studies raise the possibility of clinical utility of pioglitazone for NASH.
On the other hand, in the group of 6 rats received CDD mixed with 4% L-alanine for 6 weeks, one rat is reduced in the liver triglyceride contents (19.6 mg) in the level of SD group.

Structure (SMILES)	NASH-like pathological change ([1]; 5 rats)	liver histology ([1]; all of 5 rats)	liver weight (change) ([1]; all of 5 rats)	improvement of fatty liver [2]
C[C@H](CCC(=O)O)[C@H]1CC[C@H]2[C@@H]3[C@@H](O)C[C@@H]4C[C@H](O)CC[C@]4(C)[C@H]3CC[C@]12C [UDCA, Ursodeoxycholic acid]	did not improve	macrovesicular hepatic steatosis	increase of liver weight	–
CCc1ccc(CCOc2ccc(CC3SC(=O)NC3=O)cc2)nc1 (stereo not shown) [pioglitazone]	–	–	–	did not improve
